Test results: paper PMC3012696, “Crystal Structure of UBA2^ufd-Ubc9: Insights into E1-E2 Interactions in Sumo Pathways” (PLoS ONE, 2010)
These are yes or no findings as the source states them, for the method shown. Some binding calls cover weakened binding; strength is not graded here. Where a sequence is shown, tags or fusion partners need not be part of it.

Target: T1, Aos1 (subunit of the yeast Sumo E1), as GST fusion (yeast) (UniProt Q06624)
T1 sequence: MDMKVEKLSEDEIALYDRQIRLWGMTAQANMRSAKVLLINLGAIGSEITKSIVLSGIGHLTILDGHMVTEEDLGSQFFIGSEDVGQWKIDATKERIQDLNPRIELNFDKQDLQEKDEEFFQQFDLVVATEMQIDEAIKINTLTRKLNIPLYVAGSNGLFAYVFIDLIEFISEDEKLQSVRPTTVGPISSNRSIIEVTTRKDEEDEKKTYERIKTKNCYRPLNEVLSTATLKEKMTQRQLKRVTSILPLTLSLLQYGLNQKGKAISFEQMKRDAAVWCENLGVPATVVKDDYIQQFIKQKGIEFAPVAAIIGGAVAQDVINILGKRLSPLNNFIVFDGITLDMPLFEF
Test: co-purification (glutathione affinity, anion exchange); Aos1 and Uba2 expressed in E. coli from the Sumo E1 construct; GST-Aos1-Uba2 on glutathione affinity, cleaved with thrombin at 4°C, Aos1-Uba2 further purified by anion exchange

B1: Uba2 (subunit of the yeast Sumo E1) (enzyme, UniProt P52488 1-636)
chain: MPRETSLVTIIGEDSYKKLRSSRCLLVGAGGIGSELLKDIILMEFGEIHIVDLDTIDLSNLNRQFLFRQKDIKQPKSTTAVKAVQHFNNSKLVPYQGNVMDISTFPLHWFEQFDIIFNALDNLAARRYVNKISQFLSLPLIESGTAGFDGYMQPIIPGKTECFECTKKETPKTFPVCTIRSTPSQPIHCIVWAKNFLFNQLFASETSGNEDDNNQDWGTDDAEEIKRIKQETNELYELQKIIISRDASRIPEILNKLFIQDINKLLAIENLWKTRTKPVPLSDSQINTPTKTAQSASNSVGTIQEQISNFINITQKLMDRYPKEQNHIEFDKDDADTLEFVATAANIRSHIFNIPMKSVFDIKQIAGNIIPAIATTNAIVAGASSLISLRVLNLLKYAPTTKYTDLNMAFTAKASNLSQNRYLSNPKLAPPNKNCPVCSKVCRGVIKLSSDCLNKMKLSDFVVLIREKYSYPQDISLLDASNQRLLFDYDFEDLNDRTLSEINLGNGSIILFSDEEGDTMIRKAIELFLDVDDELPCNTCSLPDVEVPLIKANNSPSKNEEEEKNEKGADVVATTNSHGKDGIVILDDDEGEITIDAEPINGSKKRPVDTEISEAPSNKRTKLVNEPTNSDIVELD
- binding: binds
